Values quoted from earlier work in paper PMC6593967, “The development and prevalidation of an in vitro mutagenicity assay based on MutaMouse primary hepatocytes, Part II: Assay performance for the identification of mutagenic chemicals” (Environmental and Molecular Mutagenesis, 2019).

Legend:
[1] = system: HepG2 cells; details: cited from earlier work
[2] = system: Hprt gene; details: cited from earlier work

O=[N+]([O-])c1ccc2ccc3ccc([N+](=O)[O-])c4ccc1c2c34 [1,8‐DNP, 1,8‐dinitropyrene]
Response in HPRT assay [1]: negative response | Response in HPRT test [2]: Pos/Neg ^c (±S9)
